Results as given in PubChem BioAssay AID248 (DTP/NCI, 2004).
The list is a part of this screen's results and no random one: it gathers tests that were run many times, whatever their T/C, doses with no T/C, and many T/C values between a quarter and a half above the control. Other doses and runs of a compound stand elsewhere. T/C: endpoint of the treated group in % of that of the vehicle group. Some entries give survivors of the animals treated and no T/C: the source holds a T/C of zero for them, seemingly a mark for toxic or unscored doses. Some survivor counts are full or nearly so, which does not show that the dose was tolerated: the source hardly ever lists a survival T/C far under the control, and the zero likely stands for such cases as well. Counts of survivors are from the toxicity check (mostly the fifth day) where no day follows; animals may have died later. Schedules are NCI's codes, taken here to give the interval after Q, in days (D) or hours (H), and the number of doses after X. Some schedule codes hold Z or #, which are not explained here. Some doses were run more than once; the results are listed from low to high. Where survival is the endpoint, this PubChem deposit counts one and a half times the control or more as active, and values a quarter to a half above the control carry no call in these data; other NCI protocols may use other cut-offs. Some T/C values carry the count of animals alive at the toxicity check (mostly the fifth day); without a count, all were alive then.

Test system: L1210 leukemia ip in BDF1 mice, survival T/C
Test: NCI In Vivo Anticancer Drug Screen. Data for tumor model L1210 Leukemia (intraperitoneal) in B6D2F1 (BDF1) mice
Conditions: T/C endpoint: mean survival time, higher T/C = longer survival
[1] = dose: 400.0 mg/kg/injection, schedule: Q04DX003 (ip), vehicle: Klucel (hydroxypropylcellulose) (HPC)
[2] = dose: 400.0 mg/kg/injection, schedule: Q01DX009 (ip), vehicle: saline sonified
[3] = dose: 400.0 mg/kg/injection, schedule: Q01DX001 (ip), vehicle: saline
[4] = dose: 200.0 mg/kg/injection, schedule: Q01DX009 (ip), vehicle: saline
[5] = dose: 400.0 mg/kg/injection, schedule: Q04DX003 (ip), vehicle: saline with Tween-80
[6] = dose: 400.0 mg/kg/injection, schedule: Q01DX009 (ip), vehicle: saline

C=CCO[Si](OCC=C)(OCC=C)OCC=C
survivor count (dose: 300.0 mg/kg/injection, schedule: Q01DX001 (ip), vehicle: other): 3 of 6

CCCCOP(=O)(CCl)OCCCC
survivor count (dose: 400.0 mg/kg/injection, schedule: Q01DX009 (ip), vehicle: Klucel (hydroxypropylcellulose) (HPC)): 3 of 6

CN=C1c2ccccc2C2(c3ccccc3)C1N2C (stereo not drawn)
survivor count (dose: 400.0 mg/kg/injection, schedule: Q01DX009 (ip), vehicle: saline with Tween-80): 2 of 6

c1ccc(CCN2CCCC2)nc1
survivor count (dose: 50.0 mg/kg/injection, schedule: Q04DX002 (ip), vehicle: saline with Tween-80): 1 of 3 | survivor count (dose: 100.0 mg/kg/injection, schedule: Q04DX002 (ip), vehicle: saline with Tween-80): 0 of 3 | survivor count (dose: 200.0 mg/kg/injection, schedule: Q04DX002 (ip), vehicle: saline with Tween-80): 0 of 3 | survivor count (dose: 400.0 mg/kg/injection, schedule: Q04DX002 (ip), vehicle: saline with Tween-80): 0 of 3

C[N+](C)(C)C(=Nc1ccccc1)c1ccccc1
survivor count (dose: 100.0 mg/kg/injection, schedule: Q01DX009 (ip), vehicle: Klucel (hydroxypropylcellulose) (HPC)): 2 of 6 | survivor count (dose: 200.0 mg/kg/injection, schedule: Q01DX009 (ip), vehicle: Klucel (hydroxypropylcellulose) (HPC)): 0 of 6 | survivor count (dose: 200.0 mg/kg/injection, schedule: Q04DX003 (ip), vehicle: Klucel (hydroxypropylcellulose) (HPC)): 0 of 6 | survivor count [1]: 0 of 6

O=NN(CCCl)C(=O)NC1CCC(O)CC1 (stereo not drawn)
T/C (dose: 6.25 mg/kg/injection, schedule: Q01DX001 (ip), vehicle: saline): 127, 129, 138 % of control | T/C (dose: 12.5 mg/kg/injection, schedule: Q01DX001 (ip), vehicle: saline): 128 % of control | T/C (dose: 13.0 mg/kg/injection, schedule: Q01DX001 (ip), vehicle: saline): 142 % of control | survivor count (dose: 67.0 mg/kg/injection, schedule: Q01DX001 (ip), vehicle: saline): 5 of 5 | T/C (dose: 90.0 mg/kg/injection, schedule: Q01DX001 (ip), vehicle: saline): 147 % of control | survivor count (dose: 100.0 mg/kg/injection, schedule: Q01DX001 (ip), vehicle: saline): 5 of 6 | survivor count (dose: 133.0 mg/kg/injection, schedule: Q01DX001 (ip), vehicle: saline): 9 of 10 | survivor count (dose: 150.0 mg/kg/injection, schedule: Q01DX001 (ip), vehicle: saline): 6 of 6 | survivor count (dose: 200.0 mg/kg/injection, schedule: Q01DX001 (ip), vehicle: saline): 8 of 10

CN(C)C(=O)Nc1nc2ccccc2s1
survivor count (dose: 400.0 mg/kg/injection, schedule: Q04DX003 (ip), vehicle: other): 1 of 3 and 4 of 6

CN(C)CCCN(CCCN(C)C)Cc1ccccc1
survivor count (dose: 300.0 mg/kg/injection, schedule: Q01DX001 (ip), vehicle: saline): 0 of 6

Nc1nc(N)nc(-c2cccc(Cl)c2)n1
survivor count (dose: 200.0 mg/kg/injection, schedule: Q04DX002 (ip), vehicle: Klucel (hydroxypropylcellulose) (HPC)): 0 of 3 | survivor count (dose: 400.0 mg/kg/injection, schedule: Q04DX002 (ip), vehicle: Klucel (hydroxypropylcellulose) (HPC)): 0 of 3

CC(Cc1ccc2c(c1)OCO2)[N+](=O)[O-] (stereo not drawn)
survivor count (dose: 75.0 mg/kg/injection, schedule: Q04DX003 (ip), vehicle: saline with Tween-80): 1 of 6

COc1cc2ccc3c(c2cc1OC)C=[N+](C)CC3
survivor count [2]: 0 of 6

O=[n+]1c2c(n([O-])c3ccccc31)-c1cccc3cccc-2c13
survivor count (dose: 75.0 mg/kg/injection, schedule: Q01DX Z (ip), vehicle: methylcellulose (MC)): 6 of 6 | survivor count (dose: 160.0 mg/kg/injection, schedule: Q01DX Z (ip), vehicle: methylcellulose (MC)): 0 of 6 | survivor count (dose: 240.0 mg/kg/injection, schedule: Q01DX Z (ip), vehicle: methylcellulose (MC)): 0 of 6 | survivor count (dose: 360.0 mg/kg/injection, schedule: Q01DX Z (ip), vehicle: methylcellulose (MC)): 0 of 6 | survivor count [3]: 2 of 6 | survivor count (dose: 540.0 mg/kg/injection, schedule: Q01DX Z (ip), vehicle: methylcellulose (MC)): 0 of 6

O=C1C2CCN(CC2)C1Cn1cnc2c(Cl)ncnc21 (stereo not drawn)
survivor count (dose: 400.0 mg/kg/injection, schedule: Q01DX001 (ip), vehicle: Klucel (hydroxypropylcellulose) (HPC)): 3 of 6

O=S(=O)(Cl)CCCBr
survivor count [2]: 0 of 6

O=S1(=O)CCN(c2ccccc2CC(c2c[nH]c3ccccc23)c2c[nH]c3ccccc23)CC1
survivor count [3]: 4 of 4

CC(C)=CCNc1ncnc2c1ncn2C1OC(CO)C(O)C1O (stereo not drawn)
T/C (dose: 30.0 mg/kg/injection, schedule: Q01DX009 (ip), vehicle: saline): 132 % of control | T/C (dose: 80.0 mg/kg/injection, schedule: Q01DX009 (ip), vehicle: saline): 132 % of control | survivor count (dose: 100.0 mg/kg/injection, schedule: Q01DX015 (ip), vehicle: saline): 3 of 6 | T/C (dose: 120.0 mg/kg/injection, schedule: Q01DX009 (ip), vehicle: saline): 139 % of control | T/C (dose: 150.0 mg/kg/injection, schedule: Q01DX009 (ip), vehicle: saline): 128 % of control [5 of 6 alive] | T/C (dose: 180.0 mg/kg/injection, schedule: Q01DX009 (ip), vehicle: saline): 125 % of control | survivor count [4]: 1 of 6 | survivor count (dose: 200.0 mg/kg/injection, schedule: Q01DX015 (ip), vehicle: saline): 0 of 6 | survivor count [3]: 2 of 4 | survivor count [1]: 3 of 6 | survivor count [5]: 0 of 6

COC(CNCc1ccccc1)OC
survivor count (dose: 300.0 mg/kg/injection, schedule: Q01DX001 (ip), vehicle: steroid suspending solution): 1 of 6

CC1CCC(NC2=NCCO2)C(C)C1 (stereo not drawn)
survivor count (dose: 200.0 mg/kg/injection, schedule: Q04DX003 (ip), vehicle: saline with Tween-80): 1 of 6 | survivor count [5]: 0 of 6

Cn1c(N)c(N=Cc2ccc(C=Nc3c(N)n(C)c(=O)n(C)c3=O)cc2)c(=O)n(C)c1=O
survivor count (dose: 100.0 mg/kg/injection, schedule: Q01DX001 (ip), vehicle: carboxymethylcellulose (CMC)): 4 of 4

NC(=S)N/N=C/C=N/NC(N)=S
survivor count (dose: 10.0 micrograms/kg/injection, schedule: Q01DX009 (ip), vehicle: carboxymethylcellulose (CMC)): 3 of 6 | survivor count (dose: 50.0 micrograms/kg/injection, schedule: Q01DX009 (ip), vehicle: carboxymethylcellulose (CMC)): 1 of 6

C1CCN(SN2CCCCC2)CC1
survivor count [6]: 1 of 6

CCOC(=O)CNc1ccc(F)c(C(F)(F)F)c1
T/C (dose: 400.0 mg/kg/injection, schedule: Q04DX002 (ip), vehicle: saline): 133 % of control

CCCN(CCC)CP(=S)(CN(CCC)CCC)CN(CCC)CCC
survivor count [3]: 2 of 6

C1OC1C[N+]12CN3CN(CN(C3)C1)C2 (stereo not drawn)
survivor count [6]: 0 of 3

CN(N=O)C(=O)NCC1OC(OC2(CO)OC(CNC(=O)N(C)N=O)C(O)C2O)C(O)C(O)C1O (stereo not drawn)
T/C (dose: 200.0 mg/kg/injection, schedule: Q01DX009 (ip), vehicle: saline with Tween-80): 140 % of control | T/C [4]: 139 % of control

C1CCC(C2CCCC[N-]2)[N-]C1.C1CCC(C2CCCC[N-]2)[N-]C1.C1CCC(C2CCCC[N-]2)[N-]C1.[Fe+6] (stereo not drawn)
survivor count (dose: 40.0 mg/kg/injection, schedule: Q01DX001 (ip), vehicle: saline): 0 of 6 | survivor count (dose: 80.0 mg/kg/injection, schedule: Q01DX001 (ip), vehicle: saline): 0 of 6

CCCCCCCCCC(C)CCCCC (stereo not drawn)
survivor count (dose: 400.0 mg/kg/injection, schedule: Q01DX001 (ip), vehicle: saline with Tween-80): 6 of 6

CC(C)N(CCCCO)C(C)C
survivor count (dose: 200.0 mg/kg/injection, schedule: Q01DX001 (ip), vehicle: carboxymethylcellulose (CMC)): 4 of 4 | survivor count (dose: 400.0 mg/kg/injection, schedule: Q01DX001 (ip), vehicle: carboxymethylcellulose (CMC)): 1 of 4

CSc1nnc([N+](=O)[O-])s1
survivor count (dose: 25.0 mg/kg/injection, schedule: Q01DX009 (ip), vehicle: Klucel (hydroxypropylcellulose) (HPC)): 5 of 6

CN(C)/N=C/c1ccc[n+](C)c1
survivor count (dose: 50.0 mg/kg/injection, schedule: Q01DX009 (ip), vehicle: saline): 1 of 6 | survivor count (dose: 100.0 mg/kg/injection, schedule: Q01DX009 (ip), vehicle: saline): 0 of 6 | survivor count [4]: 0 of 6 | survivor count [6]: 0 of 6
